# Test: general procedure: Fmoc solid-phase peptide synthesis; Rink resin; BOP
# Details: whole synthesis, based on resin, scale 0.85 g
substance,measurement,value
H2 N-Tyr-D-Cys-Gly-Phe-D-Cys-Ser(O-β-D-Glc)-Gly-CONH2,isolated yield,28%
